Laboratory results as given in PMC11730294.
Results are given in words; binding and its absence hold for the method and conditions named. Binding seen in cells or lysates may run through a third protein. Some entries that bind do so weakly or less than the wild type. For part of these data: Where a sequence is shown, tags or fusion partners need not be part of it.

Sequences of proteins named here, by UniProt entry; tags and fusion partners are left off. A change or cut given only in a name is not applied to a line headed by its entry.
UniProt P51809: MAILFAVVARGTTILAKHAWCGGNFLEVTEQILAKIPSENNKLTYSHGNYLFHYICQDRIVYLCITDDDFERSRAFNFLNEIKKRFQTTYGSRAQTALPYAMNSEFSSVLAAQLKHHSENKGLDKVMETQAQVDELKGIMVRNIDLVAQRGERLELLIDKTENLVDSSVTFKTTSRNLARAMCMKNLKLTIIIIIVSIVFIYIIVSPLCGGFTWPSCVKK
UniProt Q01628: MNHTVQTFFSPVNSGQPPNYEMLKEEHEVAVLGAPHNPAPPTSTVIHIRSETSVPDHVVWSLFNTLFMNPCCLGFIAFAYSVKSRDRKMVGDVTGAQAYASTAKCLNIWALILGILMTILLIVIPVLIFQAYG
UniProt Q12846: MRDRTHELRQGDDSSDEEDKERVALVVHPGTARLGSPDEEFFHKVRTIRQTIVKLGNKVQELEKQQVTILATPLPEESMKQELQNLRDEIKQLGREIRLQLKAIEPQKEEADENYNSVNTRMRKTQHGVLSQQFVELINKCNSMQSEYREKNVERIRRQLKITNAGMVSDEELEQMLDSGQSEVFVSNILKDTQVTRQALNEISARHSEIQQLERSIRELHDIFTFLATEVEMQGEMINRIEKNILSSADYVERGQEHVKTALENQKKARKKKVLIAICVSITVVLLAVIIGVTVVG

Key:
[1] = biological target: T1, STX7-HA (syntaxin 7), in HEK293T (human) (UniProt O15400); experiment: co-IP; HEK293T stably expressing Empty Vector, IFITM3 WT-FLAG or IFITM3 G95L-FLAG, co-transfected with STX7-HA and VAMP8-Myc or VAMP7-Myc; STX7-HA immunoprecipitated with anti-HA; blot anti-HA, anti-FLAG, anti-Myc
T1 sequence: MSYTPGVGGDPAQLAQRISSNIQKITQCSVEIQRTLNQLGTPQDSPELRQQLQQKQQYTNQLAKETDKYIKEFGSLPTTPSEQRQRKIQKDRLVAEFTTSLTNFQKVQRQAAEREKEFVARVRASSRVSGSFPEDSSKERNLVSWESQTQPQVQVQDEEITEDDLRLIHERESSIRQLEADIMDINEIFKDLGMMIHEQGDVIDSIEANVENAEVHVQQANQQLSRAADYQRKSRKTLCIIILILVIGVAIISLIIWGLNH

VAMP7-myc (human) = VAMP7-myc (human) (UniProt P51809); experiment: co-IP; HEK293T co-transfected with two tagged proteins; the HA- or Myc-tagged SNARE immunoprecipitated (anti-HA or anti-Myc on Dynabeads, 3 h, 4 °C) from whole cell lysate (50 mM Tris-HCl pH 7.4, 1.0% Triton X-100, 150 mM NaCl, 1 mM EDTA); blot anti-FLAG
VAMP8-HA (human) = biological target: T2, VAMP8-HA (human) (UniProt Q9BV40); experiment: as above
T2 sequence: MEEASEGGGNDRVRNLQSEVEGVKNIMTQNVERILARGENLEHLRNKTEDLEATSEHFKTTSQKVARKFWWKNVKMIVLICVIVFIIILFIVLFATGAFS

[2] = biological target: T1, STX7-HA (syntaxin 7), in HEK293T (human); experiment: as above
[3] = biological target: T3, STX8-HA (syntaxin 8) (human) (UniProt Q9UNK0); experiment: as above
T3 sequence: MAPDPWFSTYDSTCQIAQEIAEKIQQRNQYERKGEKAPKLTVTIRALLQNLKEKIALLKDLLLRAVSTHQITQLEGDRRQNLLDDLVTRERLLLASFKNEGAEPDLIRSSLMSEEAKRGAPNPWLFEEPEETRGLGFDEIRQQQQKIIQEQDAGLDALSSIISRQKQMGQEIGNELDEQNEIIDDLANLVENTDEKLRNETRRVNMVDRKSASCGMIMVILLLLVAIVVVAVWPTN

[4] = biological target: T4, STX7-HA (syntaxin 7), in HeLa (human) (UniProt O15400); experiment: co-IP; HeLa (WT or IFITM3 KO) transfected with STX7-HA; STX7-HA immunoprecipitated with anti-HA; blot anti-HA, anti-IFITM3, anti-STX8, anti-Vti1b; isotype matched antibody as control
T4 sequence: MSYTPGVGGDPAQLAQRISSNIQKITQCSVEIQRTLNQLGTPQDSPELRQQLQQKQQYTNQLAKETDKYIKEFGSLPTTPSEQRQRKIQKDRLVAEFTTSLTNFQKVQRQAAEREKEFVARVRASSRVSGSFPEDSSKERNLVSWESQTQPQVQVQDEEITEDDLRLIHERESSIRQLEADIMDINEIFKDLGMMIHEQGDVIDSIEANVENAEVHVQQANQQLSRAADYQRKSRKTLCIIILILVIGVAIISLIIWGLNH

[5] = biological target: T5, endogenous STX8 (HeLa) (human (endogenous in HeLa)) (UniProt Q9UNK0); experiment: co-IP; HeLa (WT or IFITM3 KO); endogenous STX8, Vti1b, VAMP8 or VAMP7 immunoprecipitated with its antibody from whole cell lysate; blot anti-IFITM3 (and anti-VAMP8 for the STX8 precipitate)
T5 sequence: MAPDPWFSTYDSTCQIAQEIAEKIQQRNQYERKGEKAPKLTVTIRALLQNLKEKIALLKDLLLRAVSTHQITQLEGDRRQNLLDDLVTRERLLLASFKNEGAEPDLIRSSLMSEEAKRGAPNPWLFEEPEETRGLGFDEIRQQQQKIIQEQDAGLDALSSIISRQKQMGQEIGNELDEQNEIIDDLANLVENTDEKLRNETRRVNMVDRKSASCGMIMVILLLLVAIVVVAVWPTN

[6] = biological target: endogenous VAMP7 (HeLa) (human (endogenous in HeLa)) (UniProt P51809); experiment: as above
[7] = biological target: T6, endogenous VAMP8 (HeLa) (human (endogenous in HeLa)) (UniProt Q9BV40); experiment: as above
T6 sequence: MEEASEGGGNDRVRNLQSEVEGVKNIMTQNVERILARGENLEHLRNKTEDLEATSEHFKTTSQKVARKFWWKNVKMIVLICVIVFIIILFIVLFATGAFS

[8] = biological target: T7, endogenous Vti1b (HeLa) (human (endogenous in HeLa)) (UniProt Q9UEU0); experiment: as above
T7 sequence: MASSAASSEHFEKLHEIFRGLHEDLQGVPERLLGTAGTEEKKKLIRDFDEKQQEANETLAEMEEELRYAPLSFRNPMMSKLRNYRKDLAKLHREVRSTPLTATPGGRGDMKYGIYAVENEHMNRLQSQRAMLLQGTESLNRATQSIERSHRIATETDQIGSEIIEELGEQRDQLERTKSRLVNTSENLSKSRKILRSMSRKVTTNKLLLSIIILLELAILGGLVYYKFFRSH

[9] = biological target: IFITM3-FLAG WT (interferon-induced transmembrane protein 3) (human) (UniProt Q01628); experiment: co-IP; HEK293T co-transfected with two tagged proteins; the FLAG-tagged CD225 protein (IFITM3 or TUSC5) immunoprecipitated with anti-FLAG from whole cell lysate (50 mM Tris-HCl pH 7.4, 1.0% Triton X-100, 150 mM NaCl, 1 mM EDTA); blot anti-HA or anti-myc
[10] = biological target: T8, STX7-HA (syntaxin 7), in HEK293T (human), O15400; experiment: co-IP; HEK293T stably expressing Empty Vector, IFITM3 WT-FLAG or IFITM3 G95L-FLAG, co-transfected with STX7-HA and VAMP8-Myc or VAMP7-Myc; STX7-HA immunoprecipitated with anti-HA; blot anti-HA, anti-FLAG, anti-Myc; settings: remark: other sources report otherwise
T8 chain: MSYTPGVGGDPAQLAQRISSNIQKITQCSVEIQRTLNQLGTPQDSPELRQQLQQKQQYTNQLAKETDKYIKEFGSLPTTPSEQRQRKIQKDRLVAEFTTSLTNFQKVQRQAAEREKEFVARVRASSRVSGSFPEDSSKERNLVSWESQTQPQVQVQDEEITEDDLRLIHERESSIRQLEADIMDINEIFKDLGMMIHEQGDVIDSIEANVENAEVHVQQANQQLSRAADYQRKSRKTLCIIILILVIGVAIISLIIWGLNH

[11] = biological target: T9, endogenous STX8 (HeLa) (human (endogenous in HeLa)), Q9UNK0; experiment: co-IP; HeLa (WT or IFITM3 KO); endogenous STX8, Vti1b, VAMP8 or VAMP7 immunoprecipitated with its antibody from whole cell lysate; blot anti-IFITM3 (and anti-VAMP8 for the STX8 precipitate); settings: remark: other sources report otherwise
T9 chain: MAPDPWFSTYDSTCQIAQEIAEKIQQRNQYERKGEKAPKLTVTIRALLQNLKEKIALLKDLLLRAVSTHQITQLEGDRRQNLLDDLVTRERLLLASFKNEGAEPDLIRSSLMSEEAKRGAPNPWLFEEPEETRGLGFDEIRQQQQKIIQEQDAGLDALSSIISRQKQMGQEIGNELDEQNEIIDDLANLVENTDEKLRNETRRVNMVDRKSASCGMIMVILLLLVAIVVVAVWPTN

STX4-HA (syntaxin 4) = STX4-HA (syntaxin 4) (UniProt Q12846); experiment: co-IP; HEK293T co-transfected with two tagged proteins; the HA- or Myc-tagged SNARE immunoprecipitated (anti-HA or anti-Myc on Dynabeads, 3 h, 4 °C) from whole cell lysate (50 mM Tris-HCl pH 7.4, 1.0% Triton X-100, 150 mM NaCl, 1 mM EDTA); blot anti-FLAG

“IFITM3-FLAG G95L (from UniProt Q01628 1-133)” was tested, and the binding [1] was “no binding”, the binding (VAMP7-myc (human)) was “binds” and the binding (VAMP8-HA (human)) was “binds”.

In the case of “IFITM3-FLAG WT (interferon-induced transmembrane protein 3) (from UniProt Q01628 1-133)”, the binding [1] is reported as “binds”, the binding [2] is reported as “binds” and the binding [3] is reported as “binds”. For the same molecule, the binding (VAMP7-myc (human)) was “binds” and the binding (VAMP8-HA (human)) was “binds”.

With “endogenous IFITM3 (HeLa) (from UniProt Q01628 1-133)” the binding [4] was “binds”, the binding [5] was “binds” and the binding [6] was “binds”. The binding [7] was “binds” and the binding [8] was “binds”.

B1: STX7-HA (syntaxin 7), in HEK293T (protein, UniProt O15400 1-261)
chain: MSYTPGVGGDPAQLAQRISSNIQKITQCSVEIQRTLNQLGTPQDSPELRQQLQQKQQYTNQLAKETDKYIKEFGSLPTTPSEQRQRKIQKDRLVAEFTTSLTNFQKVQRQAAEREKEFVARVRASSRVSGSFPEDSSKERNLVSWESQTQPQVQVQDEEITEDDLRLIHERESSIRQLEADIMDINEIFKDLGMMIHEQGDVIDSIEANVENAEVHVQQANQQLSRAADYQRKSRKTLCIIILILVIGVAIISLIIWGLNH
In the case of B1, the binding [9] is reported as “binds”.

B2: endogenous STX8 (HeLa) (protein, UniProt Q9UNK0 1-236)
chain: MAPDPWFSTYDSTCQIAQEIAEKIQQRNQYERKGEKAPKLTVTIRALLQNLKEKIALLKDLLLRAVSTHQITQLEGDRRQNLLDDLVTRERLLLASFKNEGAEPDLIRSSLMSEEAKRGAPNPWLFEEPEETRGLGFDEIRQQQQKIIQEQDAGLDALSSIISRQKQMGQEIGNELDEQNEIIDDLANLVENTDEKLRNETRRVNMVDRKSASCGMIMVILLLLVAIVVVAVWPTN
B2 was tested, and the binding [4] was “binds”.

B3: VAMP8-Myc, Q9BV40 1-100 (protein)
chain: MEEASEGGGNDRVRNLQSEVEGVKNIMTQNVERILARGENLEHLRNKTEDLEATSEHFKTTSQKVARKFWWKNVKMIVLICVIVFIIILFIVLFATGAFS
With B3 the binding [10] was “binds”.

B4: endogenous VAMP8 (HeLa), Q9BV40 1-100 (protein)
chain: MEEASEGGGNDRVRNLQSEVEGVKNIMTQNVERILARGENLEHLRNKTEDLEATSEHFKTTSQKVARKFWWKNVKMIVLICVIVFIIILFIVLFATGAFS
B4 was tested, and the binding [11] was “binds”.

B5: TUSC5-FLAG WT (trafficking regulator of GLUT4, TRARG1/TUSC5) (protein, UniProt Q8IXB3 1-177)
chain: MAHPVQSEFPSAQEPGSAAFLDLPEMEILLTKAENKDDKTLNLSKTLSGPLDLEQNSQGLPFKAISEGHLEAPLPRSPSRASSRRASSIATTSYAQDQEAPRDYLILAVVACFCPVWPLNLIPLIISIMSRSSMQQGNVDGARRLGRLARLLSITLIIMGIVIIMVAVTVNFTVQKK
For B5, the binding (STX4-HA (syntaxin 4)) was “binds”.
